For at least one entry, the source does not settle the construct or the ends of the probe. At least one result comes from cells or an extract, where the contact may be indirect. Negatives hold for the conditions tested. At least one verdict rests on a figure or table, not on a statement of the authors.
Columns and labels:
[1] = biological target: CD63 (on HeLa cell-derived exosomes) (UniProt P08962); test: electrochemical nanochannel (I-V) capture of exosomes; conditions: whole exosomes, response similar to bare film; 5' CHO-(CH2)6; HeLa exosomes (resuspended in PBS) on BSA-blocked aptamer-PAA film, 120 min; I-V at -1.2 V, 10 mM KCl electrolyte (stated for film characterization); protein on the cell surface; single-stranded DNA
[2] = biological target: EpCAM (on HeLa cell-derived exosomes) (UniProt P16422); test: as above; conditions: whole exosomes, response similar to bare film; 5' CHO-(CH2)6; HeLa exosomes (resuspended in PBS) on BSA-blocked aptamer-PAA film, 120 min; I-V at -1.2 V, 10 mM KCl electrolyte (stated for film characterization); protein on the cell surface; single-stranded DNA

Chains of the proteins cited; added tags and fusions are not shown. Residues count along the entry.
UniProt P08962, 2-238: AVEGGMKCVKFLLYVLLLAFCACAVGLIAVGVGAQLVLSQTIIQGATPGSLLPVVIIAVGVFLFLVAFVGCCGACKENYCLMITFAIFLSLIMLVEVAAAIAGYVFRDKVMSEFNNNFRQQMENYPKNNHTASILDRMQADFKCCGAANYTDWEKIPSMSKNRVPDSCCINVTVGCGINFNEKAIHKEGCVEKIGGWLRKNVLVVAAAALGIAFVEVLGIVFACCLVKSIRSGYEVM
UniProt P16422, 24-314: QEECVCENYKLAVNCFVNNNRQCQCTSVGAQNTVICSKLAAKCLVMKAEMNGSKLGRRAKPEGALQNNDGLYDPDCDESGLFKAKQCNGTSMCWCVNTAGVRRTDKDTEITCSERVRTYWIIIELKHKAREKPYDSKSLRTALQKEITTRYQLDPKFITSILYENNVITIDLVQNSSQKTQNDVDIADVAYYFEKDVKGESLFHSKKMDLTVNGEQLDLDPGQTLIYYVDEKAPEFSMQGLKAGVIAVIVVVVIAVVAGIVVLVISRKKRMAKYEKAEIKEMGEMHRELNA

Q: What does the source list for GGGGTGGGGTAGTGGTATGGAGCG [Random DNA]?
A: binding result [1]: no binding; binding result [2]: no binding
